Assay results taken from PMC3272004.
Results are given in words; binding and its absence hold for the method and conditions named. Binding seen in cells or lysates may run through a third protein. A result given as binding can be weak or reduced; the word gives no strength.

Amino acid sequences for entries named in this document (tags omitted). A change or cut given only in a name is not applied to a line headed by its entry.
UniProt P16371: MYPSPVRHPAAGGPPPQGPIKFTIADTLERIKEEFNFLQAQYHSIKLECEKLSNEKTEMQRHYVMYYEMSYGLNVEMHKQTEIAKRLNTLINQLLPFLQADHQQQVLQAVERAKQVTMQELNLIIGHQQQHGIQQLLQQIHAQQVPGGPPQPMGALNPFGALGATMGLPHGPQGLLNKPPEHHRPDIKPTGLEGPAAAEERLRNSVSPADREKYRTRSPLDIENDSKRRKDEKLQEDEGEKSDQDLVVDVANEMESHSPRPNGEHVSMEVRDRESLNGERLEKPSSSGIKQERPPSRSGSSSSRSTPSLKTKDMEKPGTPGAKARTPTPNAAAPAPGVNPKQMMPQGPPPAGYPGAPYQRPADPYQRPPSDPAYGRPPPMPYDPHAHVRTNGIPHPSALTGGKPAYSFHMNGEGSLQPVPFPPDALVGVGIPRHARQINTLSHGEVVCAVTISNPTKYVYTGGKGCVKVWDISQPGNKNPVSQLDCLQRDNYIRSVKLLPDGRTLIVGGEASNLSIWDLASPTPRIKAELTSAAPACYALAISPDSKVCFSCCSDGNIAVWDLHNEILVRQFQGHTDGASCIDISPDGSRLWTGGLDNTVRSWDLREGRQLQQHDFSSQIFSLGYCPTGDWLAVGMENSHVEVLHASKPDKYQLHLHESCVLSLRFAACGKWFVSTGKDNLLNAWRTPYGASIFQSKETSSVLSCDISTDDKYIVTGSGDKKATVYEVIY

Biological target: His-tagged Gro N-terminal region, 40D/89D double point mutant (His-GroN^40D/89D) (Drosophila) (UniProt P16371)
Assay: pull-down; untagged Gro forms cotranslated in vitro with His-GroN in the presence of [35S]-methionine; His-GroN immobilised on Ni-NTA beads overnight at 4°C; 25 mM HEPES pH 7.6, 450 mM NaCl, 10 mM imidazole, 0.1% Tween 20, 1 mM DTT; SDS-PAGE and autoradiography

Groucho, wild-type full-length (Gro^WT), untagged (from UniProt P16371 1-730)
binding: binds
